# Measured values from PubChem BioAssay AID256 (DTP/NCI, 2004).
# The list shows only some results of the screen, not a fair sample: it gathers tests that were run many times, whatever their T/C, doses with no T/C, and many T/C values between a quarter and a half above the control. Other doses and runs of a compound stand elsewhere. T/C gives the treated animals as a percentage of the vehicle group. Some doses have a count of surviving animals in place of a T/C: the source holds a T/C of zero for them, seemingly a mark for toxic or unscored doses. Some survivor counts are full or nearly so, which does not show that the dose was tolerated: the source hardly ever lists a survival T/C far under the control, and the zero likely stands for such cases as well. Counts of survivors are from the toxicity check (mostly the fifth day) where no day follows; animals may have died later. Schedule codes are those of the source, taken here to give the interval after Q, in days (D) or hours (H), and the number of doses after X. Some doses were run more than once; the results are listed from low to high. For survival time, this PubChem deposit counts one and a half times the control or more as active, and values a quarter to a half above the control carry no call in these data; other NCI protocols may use other cut-offs. Some T/C values are followed by the survivors on the day toxicity was checked, most often the fifth; where none is given, no animal had died by that day. Brackets with × give the number of equal values in this list.
# Test system: CD2F1 mice, L1210 leukemia ip, survival T/C
# Test: NCI In Vivo Anticancer Drug Screen. Data for tumor model L1210 Leukemia (intraperitoneal) in CD2F1 (CDF1) mice
# Conditions: higher T/C = longer survival
# How it was run: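 Mice carrying a transplanted tumor received test compound or vehicle alone. The value is the measurement in the treated group divided by that in the vehicle-treated control group.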
# [1] = T/C endpoint: mean survival time, dose: 400.0 mg/kg/injection, schedule: Q01DX009 (ip), vehicle: saline with Tween-80
# [2] = T/C endpoint: median survival time, dose: 400.0 mg/kg/injection, schedule: Q01DX005 (ip), vehicle: Klucel (hydroxypropylcellulose) (HPC)
# [3] = T/C endpoint: median survival time, dose: 400.0 mg/kg/injection, schedule: Q01DX009 (ip), vehicle: Klucel (hydroxypropylcellulose) (HPC)
# [4] = T/C endpoint: mean survival time, dose: 50.0 mg/kg/injection, schedule: Q04DX003 (ip), vehicle: saline
# [5] = T/C endpoint: mean survival time, dose: 200.0 mg/kg/injection, schedule: Q04DX003 (ip), vehicle: saline with Tween-80
# [6] = T/C endpoint: mean survival time, dose: 200.0 mg/kg/injection, schedule: Q01DX009 (ip), vehicle: saline with Tween-80
# [7] = T/C endpoint: mean survival time, dose: 400.0 mg/kg/injection, schedule: Q04DX003 (ip), vehicle: saline with Tween-80
structure (smiles),measurement,setting,value
C[n+]1ccc(Nc2ccc(NC(=O)c3ccc(Nc4cc[n+](C)c5ccc(N)cc45)cc3)cc2)cc1,T/C,"T/C endpoint: mean survival time, dose: 1.0 mg/kg/injection, schedule: Q01DX009 (ip), vehicle: water",142 % of control
same,survivor count,"T/C endpoint: mean survival time, dose: 8.0 mg/kg/injection, schedule: Q01DX009 (ip), vehicle: water",3 of 10
same,survivor count,"T/C endpoint: mean survival time, dose: 16.0 mg/kg/injection, schedule: Q01DX009 (ip), vehicle: water",0 of 10
same,survivor count,"T/C endpoint: mean survival time, dose: 32.0 mg/kg/injection, schedule: Q01DX009 (ip), vehicle: water",0 of 10
same,T/C,"T/C endpoint: median survival time, dose: 0.5 mg/kg/injection, schedule: Q03HX024 (ip), vehicle: water",146 % of control
same,T/C,"T/C endpoint: median survival time, dose: 1.0 mg/kg/injection, schedule: Q01DX005 (ip), vehicle: water",140 % of control [9 of 10 alive]
same,T/C,"T/C endpoint: median survival time, dose: 1.0 mg/kg/injection, schedule: Q01DX009 (ip), vehicle: water",139 % of control
same,T/C,"T/C endpoint: median survival time, dose: 1.0 mg/kg/injection, schedule: Q03HX008 (ip), vehicle: water",139 % of control [8 of 10 alive]
same,T/C,"T/C endpoint: median survival time, dose: 2.0 mg/kg/injection, schedule: Q08DX002 (ip), vehicle: water",132 % of control
same,T/C,"T/C endpoint: median survival time, dose: 4.0 mg/kg/injection, schedule: Q04DX003 (ip), vehicle: water",142 % of control
same,T/C,"T/C endpoint: median survival time, dose: 8.0 mg/kg/injection, schedule: Q01DX001 (ip), vehicle: water",127 % of control [8 of 10 alive]
same,survivor count,"T/C endpoint: median survival time, dose: 8.0 mg/kg/injection, schedule: Q01DX005 (ip), vehicle: water",4 of 10
same,survivor count,"T/C endpoint: median survival time, dose: 8.0 mg/kg/injection, schedule: Q03HX008 (ip), vehicle: water",6 of 10
same,survivor count,"T/C endpoint: median survival time, dose: 8.0 mg/kg/injection, schedule: Q03HX016 (ip), vehicle: water",5 of 10
same,survivor count,"T/C endpoint: median survival time, dose: 8.0 mg/kg/injection, schedule: Q03HX024 (ip), vehicle: water",3 of 10
same,survivor count,"T/C endpoint: median survival time, dose: 8.0 mg/kg/injection, schedule: Q08DX002 (ip), vehicle: water",4 of 10
same,survivor count,"T/C endpoint: median survival time, dose: 16.0 mg/kg/injection, schedule: Q01DX001 (ip), vehicle: water",0 of 10
same,survivor count,"T/C endpoint: median survival time, dose: 16.0 mg/kg/injection, schedule: Q01DX005 (ip), vehicle: water",0 of 10
same,survivor count,"T/C endpoint: median survival time, dose: 16.0 mg/kg/injection, schedule: Q01DX009 (ip), vehicle: water",2 of 10
same,survivor count,"T/C endpoint: median survival time, dose: 16.0 mg/kg/injection, schedule: Q04DX003 (ip), vehicle: water",2 of 10
same,survivor count,"T/C endpoint: median survival time, dose: 16.0 mg/kg/injection, schedule: Q08DX002 (ip), vehicle: water",1 of 10
same,survivor count,"T/C endpoint: median survival time, dose: 32.0 mg/kg/injection, schedule: Q01DX001 (ip), vehicle: water",0 of 10
same,T/C,"T/C endpoint: median survival time, dose: 32.0 mg/kg/injection, schedule: Q01DX001 (sc), vehicle: water",143 % of control
same,survivor count,"T/C endpoint: median survival time, dose: 32.0 mg/kg/injection, schedule: Q04DX003 (ip), vehicle: water",0 of 10
same,survivor count,"T/C endpoint: median survival time, dose: 32.0 mg/kg/injection, schedule: Q08DX002 (ip), vehicle: water",0 of 10
same,survivor count,"T/C endpoint: median survival time, dose: 64.0 mg/kg/injection, schedule: Q01DX001 (ip), vehicle: water",0 of 10
same,survivor count,"T/C endpoint: median survival time, dose: 64.0 mg/kg/injection, schedule: Q04DX003 (ip), vehicle: water",0 of 10
same,survivor count,"T/C endpoint: median survival time, dose: 64.0 mg/kg/injection, schedule: Q08DX002 (ip), vehicle: water",0 of 10
CCOC(=O)Nc1cc(Cl)ccc1O,survivor count,[1],1 of 6
CC[N+](C)(CC)CCOC(=O)c1ccccc1Oc1ccc(C)cc1,survivor count,"T/C endpoint: mean survival time, dose: 100.0 mg/kg/injection, schedule: Q01DX009 (ip), vehicle: saline",3 of 6
CN(C)C(=O)Nc1ccc(Cl)cc1,T/C,"T/C endpoint: median survival time, dose: 25.0 mg/kg/injection, schedule: Q01DX005 (ip), vehicle: Klucel (hydroxypropylcellulose) (HPC)","97, 98, 100 (2×), 103 (2×), 107, 109 (2×), 110, 111 % of control"
same,T/C,"T/C endpoint: median survival time, dose: 25.0 mg/kg/injection, schedule: Q01DX009 (ip), vehicle: Klucel (hydroxypropylcellulose) (HPC)","94, 100 (3×), 101, 102 (2×), 104, 109, 110, 117 % of control"
same,T/C,"T/C endpoint: median survival time, dose: 50.0 mg/kg/injection, schedule: Q01DX005 (ip), vehicle: Klucel (hydroxypropylcellulose) (HPC)","96 (3×), 97 [5 of 6 alive], 98, 100, 101, 102, 103, 107, 107 % of control [5 of 6 alive]"
same,T/C,"T/C endpoint: median survival time, dose: 50.0 mg/kg/injection, schedule: Q01DX009 (ip), vehicle: Klucel (hydroxypropylcellulose) (HPC)","92 (2×), 98, 100 (2×), 102, 105 (2×), 106, 108, 121 % of control"
same,T/C,"T/C endpoint: median survival time, dose: 100.0 mg/kg/injection, schedule: Q01DX005 (ip), vehicle: Klucel (hydroxypropylcellulose) (HPC)","96 (2×), 97, 98 (2×), 100, 102, 104, 106, 107, 109 % of control [5 of 6 alive]"
same,T/C,"T/C endpoint: median survival time, dose: 100.0 mg/kg/injection, schedule: Q01DX009 (ip), vehicle: Klucel (hydroxypropylcellulose) (HPC)","94, 97, 98 (2×), 98 [5 of 6 alive], 100 (2×), 102, 107, 108, 109 % of control"
same,T/C,"T/C endpoint: median survival time, dose: 200.0 mg/kg/injection, schedule: Q01DX005 (ip), vehicle: Klucel (hydroxypropylcellulose) (HPC)","93, 95, 97, 102 (3×), 105, 108, 109 (2×), 110 % of control"
same,T/C,"T/C endpoint: median survival time, dose: 200.0 mg/kg/injection, schedule: Q01DX009 (ip), vehicle: Klucel (hydroxypropylcellulose) (HPC)","96, 97, 101 (2×), 104, 106, 108, 109 (2×), 114 % of control (2×)"
same,T/C,[2],"86 [4 of 6 alive], 106 (2×), 107, 108, 109, 110, 112, 116 % of control"
same,survivor count,[2],1 of 6 and 5 of 6
same,T/C,[3],"102, 107 (2×), 109 [5 of 6 alive], 112, 113, 115, 119 [5 of 6 alive], 120 % of control"
same,survivor count,[3],1 of 6 and 2 of 6
CCNC1(c2ccccc2)CCCCC1,survivor count,[4],1 of 3
same,survivor count,"T/C endpoint: mean survival time, dose: 100.0 mg/kg/injection, schedule: Q04DX003 (ip), vehicle: saline",0 of 3
same,survivor count,"T/C endpoint: mean survival time, dose: 200.0 mg/kg/injection, schedule: Q04DX003 (ip), vehicle: saline",0 of 3
same,survivor count,"T/C endpoint: mean survival time, dose: 400.0 mg/kg/injection, schedule: Q04DX003 (ip), vehicle: saline",0 of 3
NNC(=O)OCc1ccccc1,survivor count,"T/C endpoint: mean survival time, dose: 200.0 mg/kg/injection, schedule: Q04DX002 (ip), vehicle: saline with Tween-80",1 of 3
same,survivor count,"T/C endpoint: mean survival time, dose: 400.0 mg/kg/injection, schedule: Q04DX002 (ip), vehicle: saline with Tween-80",0 of 3
NC(=S)NNc1ccccn1,survivor count,"T/C endpoint: mean survival time, dose: 100.0 mg/kg/injection, schedule: Q04DX002 (ip), vehicle: saline",0 of 3
O=c1[nH]ccc2sccc12,survivor count,[5],2 of 6
same,survivor count,[1],3 of 6
NCCSc1ccccc1,survivor count,[6],0 of 6
Brc1nc(Br)c(Br)[nH]1,survivor count,[5],0 of 6
same,survivor count,[7],0 of 6
CC1(C)C2CC=C(CCOC(=S)S)C1C2.[Ni] (stereo not given),survivor count,[7],6 of 6
COc1ccc2c(c1)C=CC(C#N)N2 (stereo not given),survivor count,[7],6 of 6
COC(=O)[CH](C[N+](=O)[O-])[Hg][Cl] (stereo not given),survivor count,"T/C endpoint: mean survival time, dose: 3.12 mg/kg/injection, schedule: Q01DX009 (ip), vehicle: saline with Tween-80",2 of 6
same,survivor count,"T/C endpoint: mean survival time, dose: 12.5 mg/kg/injection, schedule: Q01DX009 (ip), vehicle: saline with Tween-80",1 of 6
same,survivor count,"T/C endpoint: mean survival time, dose: 25.0 mg/kg/injection, schedule: Q04DX003 (ip), vehicle: saline",3 of 6
same,survivor count,[4],0 of 6
same,survivor count,"T/C endpoint: mean survival time, dose: 100.0 mg/kg/injection, schedule: Q04DX003 (ip), vehicle: saline with Tween-80",0 of 6
same,survivor count,[5],0 of 6
same,survivor count,[7],0 of 6
COc1ccc2[nH]c(=O)oc(=O)c2c1,survivor count,[6],3 of 6
same,survivor count,[1],3 of 6
CCCCCCCCOC(=O)c1cc([N+](=O)[O-])c(Cl)c([N+](=O)[O-])c1,survivor count,[5],3 of 6
same,survivor count,[7],0 of 6
COC1=CCC2=C(C1)CC(C)O2 (stereo not given),survivor count,"T/C endpoint: mean survival time, dose: 400.0 mg/kg/injection, schedule: Q01DX009 (ip), vehicle: acetone",1 of 6
NNC(=S)Nc1ccccc1,survivor count,"T/C endpoint: mean survival time, dose: 40.0 mg/kg/injection, schedule: Q04DX003 (ip), vehicle: saline with Tween-80",3 of 6
same,survivor count,"T/C endpoint: mean survival time, dose: 80.0 mg/kg/injection, schedule: Q04DX003 (ip), vehicle: saline with Tween-80",0 of 6
